# Measured values taken from patent US20220175744A1, “COMBINATIONS OF TRANSCRIPTION INHIBITORS AND IMMUNE CHECKPOINT INHIBITORS FOR TREATMENT OF DISEASE” (Board of Regents, The University of Texas System, priority 2019, published 2022).
# Some results were stated once for a whole list of compounds, not compound by compound.
# Test system: Panc02 tumors
# Assay: syngeneic, orthotopic mouse model of pancreatic ductal adenocarcinoma, Panc02 cells expressing firefly luciferase
# Type: in vivo
# Settings: after 4 weeks; WP1066 40 mg/kg orally, antibodies 100 and 250 μg/mouse IP, day 1 and day 5 of each week for 3 weeks
smiles,measurement,value
C[C@H](NC(=O)/C(C#N)=C/c1cccc(Br)n1)c1ccccc1 [WP1066],tumor bioluminescence relative to baseline measured at 2 weeks,2-4 times baseline
